Measurements: patent US7879861B2, “Combi-molecules having EGFR and DNA targeting properties” (priority 2005, dated 2011)

Tested on: EGFR transfected cells and cell lines with different EGFR levels
Experiment: Internalization and sub-cellular distribution by fluorescence (flow cytometry, UV microscopy)
Type: cell-based
Details: 25 μM, 30 min

ClCCNc1ccc2ncnc(Nc3cccc(Br)c3)c2c1 [ZR2002]
sub-cellular localization: preferentially localized in the perinuclear region
